Source: the supplement of paper PMC4604168 (melanoma cell lines)
This is one part of the list. Single values are uncertain, as repeats are few or missing.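 The apoptosis fraction was the count of cleaved-PARP antibody-stained nuclei relative to all DNA-stained nuclei, imaged in 1,536-well plates. Screening doses were set so most cells survived, and baseline and induced cleaved-PARP levels vary greatly across cell lines.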

System: COLO800
Experiment: cleaved PARP positive nuclei fraction relative to DMSO control; melanoma cells; higher = more apoptosis
Conditions: library dose: low library concentration; 72 h

| Structure (SMILES) | cleaved PARP positive nuclei fraction [%] |
| --- | --- |
| CCc1ccc(CCOc2ccc(CC3SC(=O)NC3=O)cc2)nc1 (stereo unspecified) [pioglitazone] + CCCCCCCCCCCC1=C(O)C(=O)C=C(O)C1=O [Embelin] (first compound 2 µM, partner dose 1.2 µM) | 57.3 |
| CN(C)S(=O)(=O)c1ccc2c(c1)/C(=C/c1cc3c([nH]1)CCCC3)C(=O)N2 + c1cc(-c2cnn3cc(-c4ccc(OCCN5CCCCC5)cc4)cnc23)ccn1 [Dorsomorphin] (first compound 0.4 µM, partner dose 0.4 µM) | 158 |
| O=C(Nc1ccccc1)c1cc([N+](=O)[O-])ccc1Cl + O=c1cc(-c2cccc3c2Sc2ccccc2S3)oc(N2CCOCC2)c1 [KU55933] (first compound 2 µM, partner dose 1 µM) | 156 |
| COc1cc2ncnc(Nc3ccc(Oc4ccccc4)cc3)c2cc1OC + O=C(O)C(=O)Nc1sc2c(c1C(=O)O)CCNC2 [TCS401] (first compound 2 µM, partner dose 1.66667 µM) | 91.1 |
| COc1ccc(-c2ccc3c(N4CCOCC4)nc(N4C[C@@H](C)O[C@@H](C)C4)nc3n2)cc1CO + Oc1nc(-c2ccc(C(F)(F)F)cc2)nc2c1CSCC2 [XAV939] (first compound 0.02 µM, partner dose 2 µM) | 116 |
| CN(NC(=O)CC(=O)NN(C)C(=S)c1ccccc1)C(=S)c1ccccc1 + CCc1ccc(CCOc2ccc(CC3SC(=O)NC3=O)cc2)nc1 [pioglitazone] (first compound 0.006 µM, partner dose 2 µM) | 114 |
| CCc1ccc(CCOc2ccc(CC3SC(=O)NC3=O)cc2)nc1 (stereo unspecified) [pioglitazone] + Cc1cc([N+](=O)[O-])ccc1NS(=O)(=O)c1cc(Cl)ccc1Cl [FH535] (first compound 2 µM, partner dose 1 µM) | 131 |
| CCN(CC)CCCCNc1ncc2cc(-c3cc(OC)cc(OC)c3)c(NC(=O)NC(C)(C)C)nc2n1 + O=c1cc(-c2cccc3c2Sc2ccccc2S3)oc(N2CCOCC2)c1 [KU55933] (first compound 0.1 µM, partner dose 1 µM) | 200 |
| COc1ccc(COc2ccc(Cc3cnc(N)nc3N)cc2OC)cc1 + O=C1NC(=O)/C(=C/c2ccc(-c3ccc(F)cc3O)o2)S1 [AS252424] (first compound 1 µM, partner dose 1 µM) | 104 |
| Oc1cc(-c2nc(-c3ccccc3)[nH]c2-c2ccncc2)ccc1Cl + Cn1cc(/C=C2\C(=O)Nc3cccnc32)c2ccccc21 [GW441756] (first compound 0.2 µM, partner dose 0.4 µM) | 84.7 |
| NCC(=O)Nc1ccc(-n2nc(C(F)(F)F)cc2-c2ccc3c(ccc4ccccc43)c2)cc1 + Oc1cc(-c2nc(-c3ccccc3)[nH]c2-c2ccncc2)ccc1Cl [L779450] (first compound 1 µM, partner dose 0.2 µM) | 103 |
| O=S(=O)(c1ccccc1)N(CC(F)(F)F)c1ccc(C(O)(C(F)(F)F)C(F)(F)F)cc1 + CC(C)CCN1c2nc(Nc3cc(F)c(O)c(F)c3)ncc2N(C)C(=O)C1C [BID1870] (first compound 1.4 µM, partner dose 0.2 µM) | 142 |
| Cn1cc(/C=C2\C(=O)Nc3cccnc32)c2ccccc21 + CC(C)CCN1c2nc(Nc3cc(F)c(O)c(F)c3)ncc2N(C)C(=O)C1C [BID1870] (first compound 0.4 µM, partner dose 0.2 µM) | 160 |
| O=C1NC(=O)/C(=C/c2ccc(-c3ccc(F)cc3O)o2)S1 + COc1cc(N2CCC(N3CCN(C)CC3)CC2)ccc1Nc1ncc(Cl)c(Nc2ccccc2S(=O)(=O)C(C)C)n1 [NVP-TAE684] (first compound 1 µM, partner dose 0.08 µM) | 121 |
| N#Cc1c(O)c2c(-c3ccc(-c4ccccc4O)cc3)csc2[nH]c1=O + CCN(CC)CCCCNc1ncc2cc(-c3cc(OC)cc(OC)c3)c(NC(=O)NC(C)(C)C)nc2n1 [PD173074] (first compound 2 µM, partner dose 0.1 µM) | 159 |
| CN(C)S(=O)(=O)c1ccc2c(c1)/C(=C/c1cc3c([nH]1)CCCC3)C(=O)N2 + COc1ccc2c(c1)CCC1C2CCC2(C)C(NCCCCCCN3C(=O)C=CC3=O)CCC12 [U73122] (first compound 0.4 µM, partner dose 0.4 µM) | 88.5 |
| Oc1cc(-c2nc(-c3ccccc3)[nH]c2-c2ccncc2)ccc1Cl + c1cc(-c2cnn3cc(-c4ccc(OCCN5CCCCC5)cc4)cnc23)ccn1 [Dorsomorphin] (first compound 0.2 µM, partner dose 0.4 µM) | 114 |
| Oc1nc(-c2ccc(C(F)(F)F)cc2)nc2c1CSCC2 + CCCCCCCCCCCC1=C(O)C(=O)C=C(O)C1=O [Embelin] (first compound 2 µM, partner dose 1.2 µM) | 134 |

| Structure (SMILES) | cleaved PARP positive nuclei fraction [%] |
| --- | --- |
| CN(C)S(=O)(=O)c1ccc2c(c1)/C(=C/c1cc3c([nH]1)CCCC3)C(=O)N2 + CCN(CC)CCCCNc1ncc2cc(-c3cc(OC)cc(OC)c3)c(NC(=O)NC(C)(C)C)nc2n1 [PD173074] (first compound 0.4 µM, partner dose 0.1 µM) | 92.1 |
| COc1ccc(-c2ccc3c(N4CCOCC4)nc(N4C[C@@H](C)O[C@@H](C)C4)nc3n2)cc1CO + O=c1cc(-c2cccc3c2Sc2ccccc2S3)oc(N2CCOCC2)c1 [KU55933] (first compound 0.02 µM, partner dose 1 µM) | 191 |
| NCC(=O)Nc1ccc(-n2nc(C(F)(F)F)cc2-c2ccc3c(ccc4ccccc43)c2)cc1 + Cn1cc(/C=C2\C(=O)Nc3cccnc32)c2ccccc21 [GW441756] (first compound 1 µM, partner dose 0.4 µM) | 243 |
| COc1ccc(-c2ccc3c(N4CCOCC4)nc(N4C[C@@H](C)O[C@@H](C)C4)nc3n2)cc1CO + CC(C)CCN1c2nc(Nc3cc(F)c(O)c(F)c3)ncc2N(C)C(=O)C1C [BID1870] (first compound 0.02 µM, partner dose 0.2 µM) | 108 |
| CCN(CC)CCCCNc1ncc2cc(-c3cc(OC)cc(OC)c3)c(NC(=O)NC(C)(C)C)nc2n1 + Cc1cc([N+](=O)[O-])ccc1NS(=O)(=O)c1cc(Cl)ccc1Cl [FH535] (first compound 0.1 µM, partner dose 1 µM) | 67.6 |
| COc1cc2c(Oc3ccc4[nH]c(C)cc4c3F)ncnc2cc1OCCCN1CCCC1 [cediranib] + CCN(CC)CCCCNc1ncc2cc(-c3cc(OC)cc(OC)c3)c(NC(=O)NC(C)(C)C)nc2n1 [PD173074] (first compound 0.4 µM, partner dose 0.1 µM) | 171 |
| O=C(O)c1ccc(-c2c[nH]c3ncc(-c4ccccc4)cc23)cc1C1CCCC1 + Cn1cc(/C=C2\C(=O)Nc3cccnc32)c2ccccc21 [GW441756] (first compound 0.16 µM, partner dose 0.4 µM) | 147 |
| O=C(O)c1ccc(-c2c[nH]c3ncc(-c4ccccc4)cc23)cc1C1CCCC1 + Oc1nc(-c2ccc(C(F)(F)F)cc2)nc2c1CSCC2 [XAV939] (first compound 0.16 µM, partner dose 2 µM) | 149 |
| N#Cc1c(O)c2c(-c3ccc(-c4ccccc4O)cc3)csc2[nH]c1=O + COc1cc(N2CCC(N3CCN(C)CC3)CC2)ccc1Nc1ncc(Cl)c(Nc2ccccc2S(=O)(=O)C(C)C)n1 [NVP-TAE684] (first compound 2 µM, partner dose 0.08 µM) | 96.6 |
| Oc1cc(-c2nc(-c3ccccc3)[nH]c2-c2ccncc2)ccc1Cl + COc1cc(N2CCC(N3CCN(C)CC3)CC2)ccc1Nc1ncc(Cl)c(Nc2ccccc2S(=O)(=O)C(C)C)n1 [NVP-TAE684] (first compound 0.2 µM, partner dose 0.08 µM) | 110 |
| COc1ccc2c(c1)CCC1C2CCC2(C)C(NCCCCCCN3C(=O)C=CC3=O)CCC12 (stereo unspecified) + Oc1cc(-c2nc(-c3ccccc3)[nH]c2-c2ccncc2)ccc1Cl [L779450] (first compound 0.4 µM, partner dose 0.2 µM) | 108 |
| COc1cc2c(Oc3ccc4[nH]c(C)cc4c3F)ncnc2cc1OCCCN1CCCC1 [cediranib] + Oc1cc(-c2nc(-c3ccccc3)[nH]c2-c2ccncc2)ccc1Cl [L779450] (first compound 0.4 µM, partner dose 0.2 µM) | 63.2 |
| O=S(=O)(c1ccccc1)N(CC(F)(F)F)c1ccc(C(O)(C(F)(F)F)C(F)(F)F)cc1 + Cn1cc(/C=C2\C(=O)Nc3cccnc32)c2ccccc21 [GW441756] (first compound 1.4 µM, partner dose 0.4 µM) | 75.2 |
| N#Cc1c(O)c2c(-c3ccc(-c4ccccc4O)cc3)csc2[nH]c1=O + CC(C)CCN1c2nc(Nc3cc(F)c(O)c(F)c3)ncc2N(C)C(=O)C1C [BID1870] (first compound 2 µM, partner dose 0.2 µM) | 92.6 |
| O=S(=O)(c1ccccc1)N(CC(F)(F)F)c1ccc(C(O)(C(F)(F)F)C(F)(F)F)cc1 + Oc1cc(-c2nc(-c3ccccc3)[nH]c2-c2ccncc2)ccc1Cl [L779450] (first compound 1.4 µM, partner dose 0.2 µM) | 84.3 |
| CN(NC(=O)CC(=O)NN(C)C(=S)c1ccccc1)C(=S)c1ccccc1 + COC(=O)c1sccc1S(=O)(=O)Nc1ccc(Nc2ccccc2)cc1OC [GSK0660] (first compound 0.006 µM, partner dose 1 µM) | 82 |
| COc1cc2c(Oc3ccc4[nH]c(C)cc4c3F)ncnc2cc1OCCCN1CCCC1 [cediranib] + O=C(O)C(=O)Nc1sc2c(c1C(=O)O)CCNC2 [TCS401] (first compound 0.4 µM, partner dose 1.66667 µM) | 81.1 |
| COC(=O)c1sccc1S(=O)(=O)Nc1ccc(Nc2ccccc2)cc1OC + CCCCCCCCCCCC1=C(O)C(=O)C=C(O)C1=O [Embelin] (first compound 1 µM, partner dose 1.2 µM) | 104 |

Reformatted comma-delimited: part of the list above.
Structure (SMILES),cleaved PARP positive nuclei fraction [%]
"CN(NC(=O)CC(=O)NN(C)C(=S)c1ccccc1)C(=S)c1ccccc1 + COC(=O)c1sccc1S(=O)(=O)Nc1ccc(Nc2ccccc2)cc1OC [GSK0660] (first compound 0.006 µM, partner dose 1 µM)",82
"COc1cc2c(Oc3ccc4[nH]c(C)cc4c3F)ncnc2cc1OCCCN1CCCC1 [cediranib] + O=C(O)C(=O)Nc1sc2c(c1C(=O)O)CCNC2 [TCS401] (first compound 0.4 µM, partner dose 1.66667 µM)",81.1
